Assay results from patent US12438175B2, “Aqueous organic-based electrolyte for redox flow battery” (KEMIWATT, priority 2019, dated 2025).

Key:
[1] = Cycling tests of redox flow battery cells in constant power cycling mode; conditions: for Average CE over 5 days / Capacity retention after 5 days / Capacity retention per cycle over 5 days / Capacity retention per day over 5 days / Energy Density after 5 days at 40 mW/cm^2: 5 days of constant cycling; for Energy Density after 5 days at 40 mW/cm^2: negolyte 120 mL (ARS, AQ-2,7-DS), 40 mL (Complexone), 370 mL (M3CH)
[2] = CN107171012, compound in the negolyte, galvanostatic mode, cited from earlier work
[3] = Cycling tests of redox flow battery cells in galvanostatic mode; conditions: for available capacity (capacity utilization): first 100 cycles
[4] = 0.3 M AQ-2,7-DS, pH 13.0, Battery no 3, 60 mL, flowrate 0.5 mL/min/cm^2
[5] = 0.3 M AQ-2,7-DS, pH 13.0, Battery no 3, 60 mL, flowrate 5 mL/min/cm^2
[6] = 0.3 M AQ-2,7-DS, pH 13.0, Battery no 4, 120 mL, flowrate 0.5 mL/min/cm^2
[7] = 0.3 M AQ-2,7-DS, pH 13.0, Battery no 4, 120 mL, flowrate 5 mL/min/cm^2
[8] = flowrate 0.5 mL/min/cm^2, negolyte 120/120/40/370 mL
[9] = 0.2 M ARS, pH 14.0, Battery no 1, 60 mL, flowrate 0.5 mL/min/cm^2
[10] = 0.2 M ARS, pH 14.0, Battery no 1, 60 mL, flowrate 5 mL/min/cm^2
[11] = 0.2 M ARS, pH 14.0, Battery no 2, 120 mL, flowrate 0.5 mL/min/cm^2
[12] = 0.2 M ARS, pH 14.0, Battery no 2, 120 mL, flowrate 5 mL/min/cm^2
[13] = 0.3 M Complexone, pH 13.7, Battery no 5, 40 mL, flowrate 0.5 mL/min/cm^2
[14] = 0.3 M Complexone, pH 13.7, Battery no 5, 40 mL, flowrate 5 mL/min/cm^2
[15] = 5 cm^2, 0.2 M compound, 1 M KOH, pH 13.5, 0.2 A
[16] = 5 cm^2, 0.2 M D4SH, 1 M KOH, pH 13.5, 0.1 A
[17] = Test 1: 0.5 M M3CH, pH 13.0, 1 A

In the case of `O=C1c2ccc(S(=O)(=O)O)cc2C(=O)c2cc(S(=O)(=O)O)ccc21` [AQ-2,7-DS, Anthraquinone-2,7-disulfonic acid disodium salt], the “Average CE over 30 c” value [1, 4] is reported as 99.46%, the “Capacity retention after 30 c” value [1, 4] is reported as 98.82% and the “Capacity retention per cycle over 30 c” value [1, 4] is reported as 99.96%/cycle. For the same compound, the “Capacity retention per day per day over 30 c” value [1, 4] was 99.18%/day, the “Energy Density after 30 c at 40 mW/cm^2” value [1, 4] was 2.9 Wh/L and the “Storage duration of the 1st cycle at 40 mW/cm^2” value (shortened to “Storage duration”) [1, 4] was 0.40 h. For the same compound, the “Average CE over 30 c” value [1, 5] was 99.31%, the “Capacity retention after 30 c” value [1, 5] was 98.24% and the “Capacity retention per cycle over 30 c” value [1, 5] was 99.94%/cycle. For the same compound, the “Capacity retention per day per day over 30 c” value [1, 5] was 98.95%/day, the “Energy Density after 30 c at 40 mW/cm^2” value [1, 5] was 4.0 Wh/L and the “Storage duration” value [1, 5] was 0.57 h. For the same compound, the “Average CE over 30 c” value [1, 6] was 0.00%, the “Capacity retention after 30 c” value [1, 6] was 0.00% and the “Capacity retention per cycle over 30 c” value [1, 6] was 0.00%/cycle. The “Capacity retention per day per day over 30 c” value [1, 6] was 0.00%/day, the “Energy Density after 30 c at 40 mW/cm^2” value [1, 6] was 0.0 Wh/L and the “Storage duration” value [1, 6] was 0.00 h. The “Average CE over 30 c” value [1, 7] was 99.31%, the “Capacity retention after 30 c” value [1, 7] was 96.19% and the “Capacity retention per cycle over 30 c” value [1, 7] was 99.87%/cycle. The “Capacity retention per day per day over 30 c” value [1, 7] was 98.87%/day, the “Energy Density after 30 c at 40 mW/cm^2” value [1, 7] was 4.1 Wh/L and the “Storage duration” value [1, 7] was 1.19 h. For the same compound, the “Average CE over 5 days” value [1, 8] was 0%, the “Capacity retention after 5 days” value [1, 8] was 0% and the “Capacity retention per cycle over 5 days” value [1, 8] was 0%/cycle. For the same compound, the “Capacity retention per day over 5 days” value [1, 8] was 0%/day, the “Energy Density after 5 days at 40 mW/cm^2” value (“Energy Density after 5 days” below) ([1]; flowrate 0.5 mL/min/cm^2) was 0.0 Wh/L and the “Storage duration” value [1, 8] was 0 h.

For `O=C1c2ccccc2C(=O)c2c1cc(S(=O)(=O)O)c(O)c2O` [ARS, 1,2-Dihydroxyanthraquinone-3-sulfonic acid sodium salt], the coulombic efficiency [2] is given as 98.3%, the energy density [2] is given as 1.2 Wh/L and the “Average CE over 30 c” value [1, 9] is given as 98.79%. The “Capacity retention after 30 c” value [1, 9] was 92.06%, the “Capacity retention per cycle over 30 c” value [1, 9] was 99.72%/cycle and the “Capacity retention per day over 30 c” value [1, 9] was 93.87%/day. For the same compound, the “Energy Density after 30 c at 40 mW/cm^2” value [1, 9] was 2.5 Wh/L, the “Storage duration” value [1, 9] was 0.41 h and the “Average CE over 30 c” value [1, 10] was 98.79%. The “Capacity retention after 30 c” value [1, 10] was 95.27%, the “Capacity retention per cycle over 30 c” value [1, 10] was 99.84%/cycle and the “Capacity retention per day over 30 c” value [1, 10] was 96.57%/day. The “Energy Density after 30 c at 40 mW/cm^2” value [1, 10] was 3.2 Wh/L, the “Storage duration” value [1, 10] was 0.50 h and the “Average CE over 30 c” value [1, 11] was 98.56%. For the same compound, the “Capacity retention after 30 c” value [1, 11] was 86.22%, the “Capacity retention per cycle over 30 c” value [1, 11] was 99.51%/cycle and the “Capacity retention per day over 30 c” value [1, 11] was 94.34%/day. For the same compound, the “Energy Density after 30 c at 40 mW/cm^2” value [1, 11] was 2.2 Wh/L, the “Storage duration” value [1, 11] was 0.77 h and the “Average CE over 30 c” value [1, 12] was 98.48%. For the same compound, the “Capacity retention after 30 c” value [1, 12] was 89.82%, the “Capacity retention per cycle over 30 c” value [1, 12] was 99.64%/cycle and the “Capacity retention per day over 30 c” value [1, 12] was 96.68%/day. The “Energy Density after 30 c at 40 mW/cm^2” value [1, 12] was 3.5 Wh/L, the “Storage duration” value [1, 12] was 1.16 h and the “Average CE over 5 days” value [1, 8] was 98.64%. The “Capacity retention after 5 days” value [1, 8] was 72.9686%, the “Capacity retention per cycle over 5 days” value [1, 8] was 99.5010%/cycle and the “Capacity retention per day over 5 days” value [1, 8] was 93.8917%/day. The “Energy Density after 5 days” value ([1]; flowrate 0.5 mL/min/cm^2) was 1.9 Wh/L and the “Storage duration” value [1, 8] was 0.77 h.

In the case of `O=C(O)CN(CC(=O)O)Cc1cc2c(c(O)c1O)C(=O)c1ccccc1C2=O` [Complexone, 3,4-Dihydroxyanthraquinon-2-yl-methylimino-diacetic acid], the energy density [2] is listed as 5.2 Wh/L, the coulombic efficiency ([2]; listed as alizarin complexone) is listed as 97.1% and 97.8% and the “Average CE over 30 c” value [1, 13] is listed as 98.88%. For the same compound, the “Capacity retention after 30 c” value [1, 13] was 89.89%, the “Capacity retention per cycle over 30 c” value [1, 13] was 99.65%/cycle and the “Capacity retention per day over 30 c” value [1, 13] was 93.28%/day. For the same compound, the “Energy Density after 30 c at 40 mW/cm^2” value [1, 13] was 4.5 Wh/L, the “Storage duration” value [1, 13] was 0.53 h and the “Average CE over 30 c” value [1, 14] was 98.7%. The “Capacity retention after 30 c” value [1, 14] was 90.79%, the “Capacity retention per cycle over 30 c” value [1, 14] was 99.68%/cycle and the “Capacity retention per day over 30 c” value [1, 14] was 93.72%/day. For the same compound, the “Energy Density after 30 c at 40 mW/cm^2” value [1, 14] was 4.8 Wh/L, the “Storage duration” value [1, 14] was 0.54 h and the “Average CE over 5 days” value [1, 8] was 98.98%. The “Capacity retention after 5 days” value [1, 8] was 71.4600%, the “Capacity retention per cycle over 5 days” value [1, 8] was 99.6977%/cycle and the “Capacity retention per day over 5 days” value [1, 8] was 93.5002%/day. For the same compound, the “Energy Density after 5 days” value ([1]; flowrate 0.5 mL/min/cm^2) was 3.5 Wh/L and the “Storage duration” value [1, 8] was 0.53 h.

With `O=C(O)CCCCOc1ccc(OCCCCC(=O)O)c2c1C(=O)c1ccccc1C2=O` [Compound D4CH] the averaged coulombic efficiency [3, 15] was 99.5%, the capacity retention [3, 15] was 99.995 % per cycle and the “cycles before losing 20% of initial capacity” value [3, 15] was 4,000 cycles. The energy efficiency [3, 15] was 70% and the “available capacity (capacity utilization)” value [3, 15] was 91%.

In the case of `O=C1c2ccccc2C(=O)c2c(OCCCCS(=O)(=O)O)ccc(OCCCCS(=O)(=O)O)c21` [Compound D4SH], the “charged capacity, second cycle” value ([3]; 0.2 M D4SH, 0.1 A) is reported as 4.4 mAh, the “available capacity reached in first charge” value [3, 16] is reported as 34% and the “discharged capacity, first cycle” value [3, 16] is reported as 3.6 mAh. The “discharged capacity as % of the charged capacity” value ([3]; first cycle, 0.2 M D4SH, 0.1 A) was 10%.

In the case of `O=C(O)CCCOc1ccc(O)c2c1C(=O)c1ccccc1C2=O` [Compound M3CH], the averaged coulombic efficiency ([3]; Test 1) is reported as 99.8%, the “cycles before losing 20% of initial capacity” value ([3]; Test 1) is reported as 36,363 cycles and the energy efficiency ([3]; Test 1) is reported as 78%. The capacity retention [3, 17] was 100 % per cycle, the energy density [3, 17] was ~10 Wh/L and the available capacity ([3]; Test 1: 25 cm^2, 0.5 M M3CH, pH 13.0, 1 A, 85 cycles) was 96%. For the same compound, the “average CE with 1 day of rest after each full charge” value ([3]; Test 2) was 99.76%, the capacity retention ([3]; Test 2) was > 99.9999 % per cycle and the “cycles before losing 20% of initial capacity” value ([3]; Test 2) was 200,000 cycles. It also gave an energy efficiency ([3]; Test 2) of 79%, a hours of storage ([3]; Test 2) of 1.13 h and a self-discharge ([3]; Test 2, estimated) of ~0.19 % per storage day. For the same compound, the available capacity ([3]; Test 2: 25 cm^2, 0.5 M M3CH, pH 13.0, 1 A, 24 h rest after charge, 7 cycles) was 92%, the “average CE during constant cycling” value ([3]; Test 2 comparison, no rest) was 99.95% and the “Average CE over 5 days” value [1, 8] was 99.18%. For the same compound, the “Capacity retention after 5 days” value [1, 8] was 99.9898%, the “Capacity retention per cycle over 5 days” value [1, 8] was 99.9992%/cycle and the “Capacity retention per day over 5 days” value [1, 8] was 99.9980%/day. The “Energy Density after 5 days” value ([1]; flowrate 0.5 mL/min/cm^2) was 4.6 Wh/L, the averaged coulombic efficiency ([1]; Example 6) was 99.1% and the capacity retention ([1]; Example 6) was 100 % per cycle. The energy efficiency ([1]; Example 6) was 78%, the available capacity ([1]; Example 6, 30 cycles over 14 days) was 74% and the “power density in charge” value ([1]; Example 6, 50% SOC) was 90 mW·cm^2. The “power density in discharge” value ([1]; Example 6, 50% SOC) was 70 mW·cm^2, the “active surface resistance of the cell” value ([1]; Example 6, polarization curve at 50% SOC) was 20 Ω·cm^2 and the storage capacity ([1]; Example 6: 370 mL negolyte 0.3 M M3CH, pH 13.5, 1 W, 0.5 mL/min/cm^2) was 4 h. For the same compound, the “Storage duration” value [1, 8] was 4.05 h.

For `O=C1c2ccccc2C(=O)c2c(OCCCCS(=O)(=O)O)ccc(O)c21` [Compound M4SH], the averaged coulombic efficiency [3, 15] was 99.9%, the capacity retention [3, 15] was 99.999 % per cycle and the “cycles before losing 20% of initial capacity” value [3, 15] was 20,000 cycles. For the same compound, the energy efficiency [3, 15] was 76% and the “available capacity (capacity utilization)” value [3, 15] was 98%.

Where “and” joins values, the source holds several entries; their conditions need not be identical. Identical values can stand only once. Counter-ions that a name gives are not always drawn. Like-named read-outs stand apart in the source and are kept apart here.
